Literature values as cited in patent publication US20100105139A1, “Ligand Targeted Nanocapsules for the delivery of RNAi and other Agents” (priority 2008, published 2010).
For at least one compound, name, drawing or mass did not settle the structure.

Test system: advanced stage melanoma
Details: melanoma patients

CN(C)/N=N/c1[nH]cnc1C(N)=O [DAC, Dacarbazine]
response rates: 10-20%
